# Values of other authors in PMC11003496 (Journal of Enzyme Inhibition and Medicinal Chemistry, 2023).
# System: MCF7 human breast adenocarcinoma cell line
# Settings: read-out: MCF-7 IC50; cited from earlier work
structure (smiles),measurement,value
"CC/C(=C(\c1ccccc1)c1ccc(OCCN(C)C)cc1)c1ccccc1 [Tamoxifen, tamoxifen]",IC50,27.9 µM
